# Publication PMC6321254
# The chains behind the UniProt entries cited, without tags or fusion partners. Residues count along the entry.
# UniProt P25025, residues 2-360: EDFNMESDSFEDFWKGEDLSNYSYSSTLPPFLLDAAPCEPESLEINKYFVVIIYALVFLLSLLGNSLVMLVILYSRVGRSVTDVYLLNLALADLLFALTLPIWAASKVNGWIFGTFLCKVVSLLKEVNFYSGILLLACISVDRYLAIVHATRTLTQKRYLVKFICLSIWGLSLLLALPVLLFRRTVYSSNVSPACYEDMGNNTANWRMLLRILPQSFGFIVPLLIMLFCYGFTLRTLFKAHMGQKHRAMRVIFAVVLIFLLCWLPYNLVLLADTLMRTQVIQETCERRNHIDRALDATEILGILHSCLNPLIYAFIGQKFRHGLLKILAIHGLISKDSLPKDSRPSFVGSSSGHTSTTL
# UniProt P32120: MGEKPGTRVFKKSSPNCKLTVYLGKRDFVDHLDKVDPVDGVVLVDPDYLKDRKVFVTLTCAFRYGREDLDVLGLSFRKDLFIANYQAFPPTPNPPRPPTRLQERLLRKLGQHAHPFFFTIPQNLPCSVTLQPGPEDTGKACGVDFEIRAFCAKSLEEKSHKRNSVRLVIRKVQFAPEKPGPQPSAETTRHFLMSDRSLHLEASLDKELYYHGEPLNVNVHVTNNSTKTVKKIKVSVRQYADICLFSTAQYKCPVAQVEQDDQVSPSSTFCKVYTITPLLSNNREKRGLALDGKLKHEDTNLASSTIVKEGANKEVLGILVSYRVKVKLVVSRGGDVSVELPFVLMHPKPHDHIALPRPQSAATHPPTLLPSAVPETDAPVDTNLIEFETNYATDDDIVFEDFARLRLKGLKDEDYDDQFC
# UniProt P17870: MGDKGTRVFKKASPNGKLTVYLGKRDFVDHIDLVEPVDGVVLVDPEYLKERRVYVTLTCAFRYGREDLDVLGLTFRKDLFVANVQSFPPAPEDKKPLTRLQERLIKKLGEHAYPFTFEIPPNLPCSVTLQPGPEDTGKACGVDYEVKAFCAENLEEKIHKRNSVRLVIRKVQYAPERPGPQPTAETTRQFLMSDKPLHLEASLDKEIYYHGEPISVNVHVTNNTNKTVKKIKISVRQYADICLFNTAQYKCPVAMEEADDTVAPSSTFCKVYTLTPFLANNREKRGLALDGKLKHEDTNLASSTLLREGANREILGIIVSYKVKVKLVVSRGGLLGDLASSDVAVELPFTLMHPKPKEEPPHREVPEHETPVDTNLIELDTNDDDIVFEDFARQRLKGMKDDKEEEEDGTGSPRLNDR
# Results are given in words; binding and its absence hold for the method and conditions named. In cells and extracts the contact can be indirect. Some entries that bind do so weakly or less than the wild type. For some of these results: Where a sequence is shown, tags or fusion partners need not be part of it.
# Assays:
# HA-CXCR1-RLuc (human) = target: T1, HA-CXCR1-RLuc (human) (UniProt P25024); assay: FRET or BRET; BRET1 in living HEK-293T cells co-transfected with HA-CXCR1-RLuc or HA-CXCR2-RLuc (donor) and β-arrestin 1-EYFP or β-arrestin 2-EYFP (acceptor); 5 μM coelenterazine H; cells stimulated with 100 nM CXCL8(1-77), [Cit5]CXCL8(1-77) or CXCL8(6-77) (kinetic measurements, RT) or with graded concentrations (dose-response, 15 min at 37 °C); ligand-induced BRET ratio (value of PBS-treated cells subtracted)
# T1 sequence: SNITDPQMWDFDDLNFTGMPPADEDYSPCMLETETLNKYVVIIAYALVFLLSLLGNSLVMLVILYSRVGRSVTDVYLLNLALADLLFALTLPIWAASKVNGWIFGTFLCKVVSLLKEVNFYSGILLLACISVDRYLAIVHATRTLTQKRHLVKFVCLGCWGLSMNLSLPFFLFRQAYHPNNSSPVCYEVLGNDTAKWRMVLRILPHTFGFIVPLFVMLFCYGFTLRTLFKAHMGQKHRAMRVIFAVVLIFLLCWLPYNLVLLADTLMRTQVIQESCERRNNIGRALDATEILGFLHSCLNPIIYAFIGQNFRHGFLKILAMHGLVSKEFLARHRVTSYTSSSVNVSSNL
# HA-CXCR2-RLuc (human) = HA-CXCR2-RLuc (human) (UniProt P25025); assay: as above
binding (HA-CXCR1-RLuc (human)),binding (HA-CXCR2-RLuc (human)),Substance
binds,binds,β-arrestin 2-EYFP (from UniProt P32120 1-420)
binds,binds,β-arrestin 1-EYFP (from UniProt P17870 1-418)
